The target in assay [1] is DDR1-Flag (UniProt Q08345). The assay can be described thus: co-IP; HEK293T cells overexpressing DDR1-Flag and Myc-USP7; IP with Myc magnetic beads or DDR1 antibody, immunoblot; also done in SCR and TP53-knockdown HEK293T cells (Myc pulldown); at least 1 mg protein and at least 1 ug antibody per sample. (In general: In western blotting, separated proteins are transferred to a membrane and probed.)

Amino acid sequences for entries named in this document (tags omitted). Residues count along the entry.
UniProt Q08345, residues 19-913: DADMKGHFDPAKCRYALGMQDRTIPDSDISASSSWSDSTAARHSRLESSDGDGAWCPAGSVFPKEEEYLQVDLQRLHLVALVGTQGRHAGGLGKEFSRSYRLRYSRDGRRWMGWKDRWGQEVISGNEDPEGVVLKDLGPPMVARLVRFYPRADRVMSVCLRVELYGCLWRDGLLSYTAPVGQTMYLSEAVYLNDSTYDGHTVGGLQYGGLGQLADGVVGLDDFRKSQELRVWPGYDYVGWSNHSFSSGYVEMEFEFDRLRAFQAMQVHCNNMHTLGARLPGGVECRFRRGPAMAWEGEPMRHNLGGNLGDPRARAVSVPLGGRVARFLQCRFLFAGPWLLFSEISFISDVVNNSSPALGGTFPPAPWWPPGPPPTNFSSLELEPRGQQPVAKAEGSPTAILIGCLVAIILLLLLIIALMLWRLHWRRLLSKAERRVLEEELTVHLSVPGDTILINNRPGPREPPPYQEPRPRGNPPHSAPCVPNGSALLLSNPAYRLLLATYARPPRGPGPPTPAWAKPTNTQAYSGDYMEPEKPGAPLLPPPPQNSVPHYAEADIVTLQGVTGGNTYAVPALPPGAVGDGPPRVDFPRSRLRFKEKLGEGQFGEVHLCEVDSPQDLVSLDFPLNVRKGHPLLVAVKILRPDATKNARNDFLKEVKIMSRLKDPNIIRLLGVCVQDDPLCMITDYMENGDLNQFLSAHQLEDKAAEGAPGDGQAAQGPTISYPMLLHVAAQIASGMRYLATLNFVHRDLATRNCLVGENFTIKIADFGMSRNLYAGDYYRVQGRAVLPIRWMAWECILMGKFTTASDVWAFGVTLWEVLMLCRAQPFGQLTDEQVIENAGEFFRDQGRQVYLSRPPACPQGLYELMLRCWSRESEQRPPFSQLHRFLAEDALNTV
UniProt Q93009: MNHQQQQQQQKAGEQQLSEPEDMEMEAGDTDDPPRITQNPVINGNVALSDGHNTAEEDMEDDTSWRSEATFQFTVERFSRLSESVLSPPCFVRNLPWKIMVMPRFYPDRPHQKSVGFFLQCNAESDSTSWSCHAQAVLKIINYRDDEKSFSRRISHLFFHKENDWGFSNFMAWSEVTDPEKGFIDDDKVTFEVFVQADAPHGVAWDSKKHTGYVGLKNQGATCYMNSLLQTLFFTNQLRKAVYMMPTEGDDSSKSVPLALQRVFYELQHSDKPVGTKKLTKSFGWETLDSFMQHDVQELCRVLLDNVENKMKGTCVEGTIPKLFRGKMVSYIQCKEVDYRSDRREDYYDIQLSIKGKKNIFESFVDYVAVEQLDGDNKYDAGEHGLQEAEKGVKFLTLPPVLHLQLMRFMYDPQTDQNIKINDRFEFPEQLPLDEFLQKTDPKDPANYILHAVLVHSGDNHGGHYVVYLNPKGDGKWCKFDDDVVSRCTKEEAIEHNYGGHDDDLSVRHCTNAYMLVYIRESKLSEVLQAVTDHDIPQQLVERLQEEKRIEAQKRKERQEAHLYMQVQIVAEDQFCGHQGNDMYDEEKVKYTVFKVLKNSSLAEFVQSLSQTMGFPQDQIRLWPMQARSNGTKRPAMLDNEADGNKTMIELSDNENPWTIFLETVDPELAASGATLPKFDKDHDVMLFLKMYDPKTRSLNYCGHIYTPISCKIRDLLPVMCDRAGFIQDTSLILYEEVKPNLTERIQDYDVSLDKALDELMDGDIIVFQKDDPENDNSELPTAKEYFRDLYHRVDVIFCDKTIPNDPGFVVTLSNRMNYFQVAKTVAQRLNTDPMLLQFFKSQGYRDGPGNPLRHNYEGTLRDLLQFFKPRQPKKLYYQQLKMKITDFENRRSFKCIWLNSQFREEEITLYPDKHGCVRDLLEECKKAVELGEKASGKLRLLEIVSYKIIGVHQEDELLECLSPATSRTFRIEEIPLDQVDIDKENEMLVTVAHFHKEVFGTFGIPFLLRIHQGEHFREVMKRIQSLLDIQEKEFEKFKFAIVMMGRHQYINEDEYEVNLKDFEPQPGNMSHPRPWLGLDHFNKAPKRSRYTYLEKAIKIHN

Assay [2] concerns the target Discoidin Domain Receptor 1 (endogenous, A549 cells) (human (endogenous in A549)) (UniProt Q08345). Description: co-IP; reciprocal co-IP of endogenous proteins in A549 cells with DDR1 or USP7 antibodies, IgG as negative control, immunoblot; at least 1 mg protein and at least 1 ug antibody per sample.

This is an account of results in paper PMC12390941, “Ubiquitin-specific protease 7-mediated stabilization of discoidin domain receptor 1 drives progression of TP53-Mutant cancers” (The Journal of Biological Chemistry, 2025).

These are yes or no findings as the source states them, for the method shown. Binding seen in cells or lysates may run through a third protein. Some results given as binding are weak or reduced against the parent protein; the word gives no strength.

In the case of “Myc-USP7 (from UniProt Q93009 1-1102) (enzyme)”, the binding entry in assay [1] was “binds”.

In the case of “Ubiquitin-specific protease 7 (endogenous, A549 cells) (from UniProt Q93009 1-1102) (enzyme)”, in assay [2], the binding entry is listed as “binds”.
